In article PMC4793043:
These are yes or no findings as the source states them, for the method shown. Binding seen in cells or lysates may run through a third protein. Some binding calls cover weakened binding; strength is not graded here. For part of these data: Where a sequence is shown, tags or fusion partners need not be part of it. One block for each molecule: values may come before it.

By UniProt entry, the sequences of proteins in these tests, tags left out.
UniProt Q9UQL6: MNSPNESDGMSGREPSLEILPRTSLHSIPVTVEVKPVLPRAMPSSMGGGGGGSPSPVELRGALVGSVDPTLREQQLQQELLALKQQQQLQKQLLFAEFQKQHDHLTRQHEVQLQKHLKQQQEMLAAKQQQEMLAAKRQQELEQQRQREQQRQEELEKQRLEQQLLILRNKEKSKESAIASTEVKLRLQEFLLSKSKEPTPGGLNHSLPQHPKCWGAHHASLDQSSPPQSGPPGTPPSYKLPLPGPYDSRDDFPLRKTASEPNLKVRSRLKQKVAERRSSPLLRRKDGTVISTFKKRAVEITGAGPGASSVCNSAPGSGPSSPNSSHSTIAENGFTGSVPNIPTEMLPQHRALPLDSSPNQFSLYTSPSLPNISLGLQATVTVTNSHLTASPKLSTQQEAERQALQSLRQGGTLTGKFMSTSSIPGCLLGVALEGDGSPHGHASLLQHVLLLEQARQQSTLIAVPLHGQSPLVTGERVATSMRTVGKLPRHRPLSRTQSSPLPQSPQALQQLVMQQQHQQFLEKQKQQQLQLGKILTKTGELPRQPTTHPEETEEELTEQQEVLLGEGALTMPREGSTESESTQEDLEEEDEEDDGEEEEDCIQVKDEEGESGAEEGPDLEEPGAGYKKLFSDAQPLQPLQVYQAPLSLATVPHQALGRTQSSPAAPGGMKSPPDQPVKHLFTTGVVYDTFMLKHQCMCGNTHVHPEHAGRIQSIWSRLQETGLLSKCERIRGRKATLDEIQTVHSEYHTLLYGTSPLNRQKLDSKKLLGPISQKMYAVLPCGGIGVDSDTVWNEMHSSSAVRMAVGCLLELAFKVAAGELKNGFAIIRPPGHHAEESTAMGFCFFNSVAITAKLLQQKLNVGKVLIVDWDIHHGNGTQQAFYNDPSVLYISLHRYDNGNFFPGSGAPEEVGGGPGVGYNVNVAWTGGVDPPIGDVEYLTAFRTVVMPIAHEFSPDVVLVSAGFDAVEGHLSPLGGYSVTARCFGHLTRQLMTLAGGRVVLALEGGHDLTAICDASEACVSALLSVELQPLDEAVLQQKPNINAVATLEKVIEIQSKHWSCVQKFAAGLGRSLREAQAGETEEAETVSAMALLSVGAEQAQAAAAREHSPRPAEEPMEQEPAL
UniProt P17844: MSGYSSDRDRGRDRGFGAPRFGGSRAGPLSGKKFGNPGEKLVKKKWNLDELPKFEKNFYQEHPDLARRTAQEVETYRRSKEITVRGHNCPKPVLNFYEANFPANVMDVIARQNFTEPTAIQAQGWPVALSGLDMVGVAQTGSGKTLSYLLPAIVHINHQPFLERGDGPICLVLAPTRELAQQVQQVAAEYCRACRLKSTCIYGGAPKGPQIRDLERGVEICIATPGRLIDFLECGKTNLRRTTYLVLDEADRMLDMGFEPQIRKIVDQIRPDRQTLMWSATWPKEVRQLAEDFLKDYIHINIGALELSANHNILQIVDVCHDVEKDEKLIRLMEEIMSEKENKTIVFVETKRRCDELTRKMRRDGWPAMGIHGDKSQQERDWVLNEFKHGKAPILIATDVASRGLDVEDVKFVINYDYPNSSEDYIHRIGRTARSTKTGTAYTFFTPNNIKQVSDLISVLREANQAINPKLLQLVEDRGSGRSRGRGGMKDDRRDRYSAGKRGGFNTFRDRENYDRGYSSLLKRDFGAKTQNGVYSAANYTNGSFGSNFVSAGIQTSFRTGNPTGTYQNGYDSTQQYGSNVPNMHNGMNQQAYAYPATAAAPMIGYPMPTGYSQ

Experiments:
[1] = target: T1, Flag-Drosha (UniProt Q9NRR4); experiment: co-IP; lysates of HEK293T cells co-transfected with Flag-Drosha or Flag-DGCR8 and HA-TLX (full length or deletion mutants), with or without DNase and RNase; IP with anti-Flag antibody, blot with anti-HA antibody
T1 sequence: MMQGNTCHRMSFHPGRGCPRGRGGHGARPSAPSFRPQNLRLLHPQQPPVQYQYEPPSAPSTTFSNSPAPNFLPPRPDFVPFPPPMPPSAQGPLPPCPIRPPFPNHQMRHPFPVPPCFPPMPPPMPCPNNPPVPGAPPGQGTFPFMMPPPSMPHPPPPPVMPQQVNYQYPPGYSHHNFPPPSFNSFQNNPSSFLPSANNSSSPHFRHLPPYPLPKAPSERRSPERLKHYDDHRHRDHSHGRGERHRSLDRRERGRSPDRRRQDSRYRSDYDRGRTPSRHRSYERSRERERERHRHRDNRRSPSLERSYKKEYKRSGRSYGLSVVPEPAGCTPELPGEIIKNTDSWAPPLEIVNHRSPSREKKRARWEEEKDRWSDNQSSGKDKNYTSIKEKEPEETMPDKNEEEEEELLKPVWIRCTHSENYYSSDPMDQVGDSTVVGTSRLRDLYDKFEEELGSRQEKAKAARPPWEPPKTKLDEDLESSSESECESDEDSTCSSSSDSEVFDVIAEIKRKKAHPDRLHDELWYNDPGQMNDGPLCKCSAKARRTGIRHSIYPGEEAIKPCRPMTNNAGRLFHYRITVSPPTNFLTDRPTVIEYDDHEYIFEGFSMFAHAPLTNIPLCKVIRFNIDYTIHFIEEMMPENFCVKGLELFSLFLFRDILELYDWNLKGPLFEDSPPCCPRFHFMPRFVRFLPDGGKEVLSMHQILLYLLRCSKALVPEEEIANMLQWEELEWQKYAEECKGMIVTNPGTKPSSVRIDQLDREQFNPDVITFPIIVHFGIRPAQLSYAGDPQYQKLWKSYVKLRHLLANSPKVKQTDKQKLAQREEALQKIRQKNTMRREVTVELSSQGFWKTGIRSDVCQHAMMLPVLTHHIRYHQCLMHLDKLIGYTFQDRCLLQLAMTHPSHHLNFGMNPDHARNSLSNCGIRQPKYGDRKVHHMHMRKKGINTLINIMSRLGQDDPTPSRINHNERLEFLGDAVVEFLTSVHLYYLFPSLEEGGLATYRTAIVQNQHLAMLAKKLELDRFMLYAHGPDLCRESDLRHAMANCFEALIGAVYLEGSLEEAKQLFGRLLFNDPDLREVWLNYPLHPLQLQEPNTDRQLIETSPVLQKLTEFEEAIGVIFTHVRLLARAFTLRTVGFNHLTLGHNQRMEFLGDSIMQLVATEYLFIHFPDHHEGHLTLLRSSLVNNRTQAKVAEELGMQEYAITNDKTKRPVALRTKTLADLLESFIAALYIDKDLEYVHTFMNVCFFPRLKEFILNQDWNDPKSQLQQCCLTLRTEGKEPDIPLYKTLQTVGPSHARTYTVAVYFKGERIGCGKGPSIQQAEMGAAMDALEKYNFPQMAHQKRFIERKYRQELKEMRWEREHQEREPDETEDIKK

[2] = target: T1, Flag-Drosha; experiment: co-IP; HEK293T cells co-transfected with Dpi peptide, control peptide or empty vector together with HA-TLX and Flag-Drosha or Flag-HDAC5; IP with anti-Flag antibody, blot with anti-HA or anti-Flag antibody
[3] = target: Flag-HDAC5 (UniProt Q9UQL6); experiment: as above
[4] = target: T2, Flag-DGCR8 (UniProt Q8WYQ5); experiment: co-IP; lysates of HEK293T cells co-transfected with Flag-Drosha or Flag-DGCR8 and HA-TLX (full length or deletion mutants), with or without DNase and RNase; IP with anti-Flag antibody, blot with anti-HA antibody
T2 sequence: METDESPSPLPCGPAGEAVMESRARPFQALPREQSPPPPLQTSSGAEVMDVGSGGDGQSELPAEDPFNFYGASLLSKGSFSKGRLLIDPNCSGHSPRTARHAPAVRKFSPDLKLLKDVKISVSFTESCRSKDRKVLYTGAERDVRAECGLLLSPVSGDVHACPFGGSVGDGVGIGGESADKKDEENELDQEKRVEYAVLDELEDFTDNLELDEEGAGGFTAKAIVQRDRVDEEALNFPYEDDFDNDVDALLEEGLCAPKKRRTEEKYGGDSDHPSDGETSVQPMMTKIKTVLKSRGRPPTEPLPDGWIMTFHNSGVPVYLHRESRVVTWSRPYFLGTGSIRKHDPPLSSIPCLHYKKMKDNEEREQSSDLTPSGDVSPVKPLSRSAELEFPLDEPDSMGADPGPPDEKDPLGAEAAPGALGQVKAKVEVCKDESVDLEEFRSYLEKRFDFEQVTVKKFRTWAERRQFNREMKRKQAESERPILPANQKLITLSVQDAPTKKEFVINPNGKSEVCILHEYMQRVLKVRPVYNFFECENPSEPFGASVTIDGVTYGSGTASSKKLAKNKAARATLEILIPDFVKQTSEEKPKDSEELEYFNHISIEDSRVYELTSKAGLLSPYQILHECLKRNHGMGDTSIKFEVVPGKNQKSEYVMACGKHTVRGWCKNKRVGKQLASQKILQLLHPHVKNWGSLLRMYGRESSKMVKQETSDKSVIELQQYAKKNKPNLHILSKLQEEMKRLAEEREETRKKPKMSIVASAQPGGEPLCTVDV

[5] = target: HA-tagged full-length TLX (residues 1-385) (UniProt Q64104); experiment: co-IP; lysates of HEK293T cells transfected with HA-TLX (full length or deletion mutants), with or without DNase and RNase; IP with HA antibody, blot with p68 antibody; lysis buffer 50 mM Tris-HCl pH 7.8, 150 mM NaCl, 1% NP-40, 0.1% deoxycholate
[6] = target: HA-tagged TLX deletion mutant, residues 1-359 (UniProt Q64104); experiment: as above
[7] = target: endogenous TLX (E13.5 mouse brain) (mouse (endogenous in E13.5 mouse brain)) (UniProt Q64104); experiment: co-IP; endogenous proteins; lysates of E13.5 mouse brains immunoprecipitated with TLX antibody, blotted with anti-Drosha, anti-DGCR8 or anti-TLX antibody

binding [1]: binds
Molecule: HA-tagged TLX deletion mutant, residues 1-359 (from UniProt Q64104 1-359) (domain or fragment)

binding [2]: binds
binding [3]: binds
binding [1]: binds
binding [4]: binds
Molecule: HA-tagged full-length TLX (residues 1-385) (from UniProt Q64104 1-385)

binding [5]: binds
binding [6]: binds
Molecule: RNA helicase p68 (DDX5), endogenous in HEK293T (from UniProt P17844 1-614)

binding [7]: binds
B1: endogenous Drosha (E13.5 mouse brain) (enzyme, UniProt Q5HZJ0 1-1373)
chain: MQGNTCHRMSYHPGRGCPRGRGGHGARPSAPAFRPQNLRLLHPQQPPAQYQYEPPSAPSSSYSNSQAPSFMPPRPDFVPYPPPAAPSAQGPLPPCPVRPPYPNHQMRHPFPVPPCFPPMPPPMPCPNNPPASGAPPGQGTFPFMVPPPSMPHPPPPPVMPQQVNYQYPPGYSHSFPPPGFNSYQNNSSSFPPSANSSSTPHFRHLPPYSLPKAQNERRSPERLKHYDDHRHRDHSHGRGERHRSLERRERGRSPERRRPESRYRSDYDRGRTPPPRHRSYERSRERDRERHRHREARRSPSLERSYKKEYKRSGRSYALPVAPEPAGCTPELPGEMIKTTESWAPPPENVNHRSPSREKKRARWEEEKDRWSDSQGSGKEKNYTSIKEKEAEEVPPEKTEEEEEELLKPVWIRCTHSESYYSSDPMDQVGDSTVVGTSRLRDLYDKFEEELGNRQEKAKAARPPWEPPKTKLDEDLESSSESECETDDDSTCSSSSDSEVFDVIAEIKRKKAHPDRLHDELWYNDPGQMNDGPLCKCSAKARRTGIRHSIYPGEEAIKPCRPMTNNAGRLFHYRITVSPPTNFLTDRPTVIEYDDHEYIFEGFSMFAHAPLTNIPLCKVIRFNIDYTIHFIEEMMPENFCVKGLELFSLFLFRDILELYDWNLKGPLFEDSPPCCPRFHFMPRFVRFLPDGGKEVLSMHQILLYLLRCSKALVPEEEIANMLQWEELEWQKYAEECKGMIVTNPGTKPSSVRIDQLDREQFNPEVITFPIIVHFGIRPAQLSYAGDPQYQKLWKSYVKLRHLLANSPKVKQTDKQKLAQREEALQKIRQKNTMRREVTVELSSQGFWKTGIRSDVCQHAMMLPVLTHHIRYHQCLMHLDKLIGYTFQDRCLLQLAMTHPSHHLNFGMNPDHARNSLSNCGIRQPKYGDRKVHHMHMRKKGINTLINIMSRLGQDDPTPSRINHNERLEFLGDAVVEFLTSVHLYYLFPSLEEGGLATYRTAIVQNQHLAMLAKKLELDRFMLYAHGPDLCRESDLRHAMANCFEALIGAVYLEGSLEEAKQLFGRLLFNDPDLREVWLNYPLHPLQLQEPNTDRQLIETSPVLQKLTEFEEAIGVIFTHVRLLARAFTLRTVGFNHLTLGHNQRMEFLGDSIMQLVATEYLFIHFPDHHEGHLTLLRSSLVNNRTQAKVAEELGMQEYAITNDKTKRPVALRTKTLADLLESFIAALYIDKDLEYVHTFMNVCFFPRLKEFILNQDWNDPKSQLQQCCLTLRTEGKEPDIPLYKTLQTVGPSHARTYTVAVYFKGERIGCGKGPSIQQAEMGAAMDALEKYNFPQMAHQKRFIERKYRQELKEMRWEREHQEREPEEAEDIKK

binding [7]: binds
B2: endogenous DGCR8 (E13.5 mouse brain) (protein, UniProt Q9EQM6 1-773)
chain: METYESPSPLPREPAGEAMMENRACPFQVLPHEQSPPPPLQTSSDAEVMDVGSGGDGQSEPPADDPFNFYGASLLSKGSFSKGRLLIDPNCSGHSPRTARHAPAVRKFSPDLKLLKDVKISVSFTESCRSKDRKVLYTGVERSTRPECGQLLSPVSGDVHACPFGGSVGNGVGLGGESADKKDEENELDQEKRVEYAVLDELEDFTDNLELDEEGTGGFTAKAIVQRDRVDEEALNFSYEDDFDNDVDALLEEGLCAPKKRRMEEKYGGDSDHPSDGETSVQPMMTKIKTVLKSRGRPPTEPLPDGWIMTFHNSGVPVYLHRESRVVTWSRPYFLGTGSIRKHDPPLSSIPCLHYKKMKDNEEREQNCDLAPSGEVSPVKPLGRSAELDFPLEEPDSMGGDSGSMDEKDPLGAEAAAGALGQVKAKVEVCKDESVDLEEFRNYLEKRFDFEQVTVKKFRTWAERRQFNREMKRKQAESERPILPANQKLITLSVQDAPTKKEFVINPNGKSEVCILHEYMQRVLKVRPVYNFFECENPSEPFGASVTIDGVTYGSGTASSKKLAKNKAARATLEILIPDFVKQTSEEKPKDSEELEYFNHISIEDSRVYELTSKAGLLSPYQILHECLKRNHGMGDTSIKFEVVPGKNQKSEYVMACGKHTVRGWCKNKRVGKQLASQKILQLLHPHVKNWGSLLRMYGRESSKMVKQETSDKSVIELQQYAKKNRPNLHILSKLQEEMKRLAAEREETRKKPKMSIVASAQPGGEPLCTVDV
